Measurements published in PMC12040169 (PLOS Biology, 2025).
The other results are listed elsewhere or left out.

What follows are compounds tested on T1, CTL2-GFP (C. trachomatis L2/434/Bu, GFP-expressing). Settings: bulk GFP, single well; 28.5 h, 10 µM; inhibitor.
T1 construct: L2/434/Bu, GFP-expressing
Design: species or system HeLa; Intracellular C. trachomatis growth in HeLa cells, bulk GFP fluorescence relative to DMSO

Row | Compound | % of control remaining
1 | O=C(NCc1nc2ccccc2[nH]1)c1cnc(-c2ccc(Cl)cc2)c(-c2ccco2)c1 [CBK037555] | 75.0931%
2 | Cc1ccc2c(c1)c(=O)cc(C(F)(F)F)n2C[C@H]1CCCN1 [CBK285303] | 62.5783%
3 | O=C(O)CCC(=O)NC1CCN(Cc2ccccc2)CC1 [CBK287103] | 124.323%
4 | COc1cc(OC)cc(C(=O)N(CCC#N)Cc2ccco2)c1 [CBK305133] | 137.302%
5 | COc1ccc(C(=O)Nc2ccc3c(c2)nc2n3CCN(Cc3ccccc3)C2)cc1 [CBK266820] | 164.678%
6 | O=C(c1ccc2c(c1)N(Cc1ccc(F)cc1)C(=O)CO2)c1cccs1 [CBK286410] | 116.156%
7 | O=C(c1[nH]nc(O)c1Cc1c(Cl)cccc1Cl)N1CCOCC1 [CBK107228] | 101.693%
8 | COc1cc(/C=N/NC(=O)CCn2c3ccc(Cl)cc3c3cc(Cl)ccc32)ccc1O [CBK262351] | 103.466%
9 | CC(=O)N1CCN(C(=O)C[C@@H]2C[C@@H](C(C)C)[C@H](CNC(=O)c3cccnc3)C=C2C)CC1 [CBK289046] | 119.826%
10 | Cn1ccc(C(=O)N2CCOC(c3nc(C(C)(C)C)n[nH]3)C2)cc1=O (stereo not shown) [CBK305201] | 104.29%
11 | CC(=O)NCC(=O)N1CC[C@@H]2NC(=O)CNC(=O)C3(CCCC[C@H]2C1)CCN(C(C)=O)CC3 [CBK292014] | 119.014%
12 | COC(=O)C1CC(O)CN1S(=O)(=O)c1cccs1 (stereo not shown) [CBK086668] | 114.061%
13 | CC(=O)N(C)c1ccc(NS(=O)(=O)c2cc(C)c(Cl)cc2C)cc1 [CBK045298] | 63.6927%
14 | Clc1ccc(CN2CCC(Oc3nccnc3OCCN3CCOCC3)CC2)cc1 [CBK082918T] | 111.755%
15 | Cc1cc(C(=O)O)c(NC(=O)c2cccc(Cl)c2)s1 [CBK126813] | 126.894%
16 | O=C(NCc1ccc(F)cc1)c1cc(Br)cnc1N1CCOCC1 [CBK076246] | 166.844%
17 | O=C(Nc1ccc2c(c1)OCCO2)N1CCCCC1CO (stereo not shown) [CBK156178] | 108.583%
18 | Nc1ccc(Oc2ccc(-n3c(=O)c4cc5c(=O)n(-c6ccc(Oc7ccc(N)cc7)cc6)c(=O)c5cc4c3=O)cc2)cc1 [CBK261489] | 100%
19 | Cc1ccc(C2C=C(c3ccccc3)Nc3nc(N4C(=O)CCC4=O)nn32)cc1 (stereo not shown) [CBK266197] | 168.068%
20 | Cc1cccc2c(C(=O)OCC(=O)c3ccc([N+](=O)[O-])cc3)cc(-c3ccc(Cl)cc3)nc12 [CBK264088] | 112.018%
21 | COc1ccc(Cl)cc1N1CCN(Cc2ccc3ccccc3c2)CC1 [CBK126414] | 103.026%
22 | Cc1nc2cc(OCc3ccc(-c4nccnc4-c4nnn[nH]4)cc3)ccc2s1 [CBK050820] | 156.586%
23 | CN1CCC(C(=O)N2CCN(c3ccccc3)CC2)CC1 [CBK200211] | 174.833%
24 | CN(C)c1ccccc1-c1cc(NC2CCCCC2)ncn1 [CBK037041] | 157.521%
25 | N#CCCN(C(=O)NCc1cccc(C(F)(F)F)c1)C1CCCCC1 [CBK156350] | 115.936%
26 | CN(C)c1nc(NC2CC2)nc(Oc2ccc(=O)n(-c3ccccc3)n2)n1 [CBK270187] | 94.2113%

Row | Compound | % of control remaining
27 | Cc1cccc(OCCN2C(=O)CC(Cc3cnn(C)c3)C2=O)c1 (stereo not shown) [CBK304081] | 113.708%
28 | Cc1nnc(SCC(=O)Nc2nnc(C(C)C)s2)[nH]c1=O [CBK022107] | 139.884%
29 | COc1cc2c(cc1-c1cn(CCc3n[nH]c(=O)[nH]3)nn1)CCC2 [CBK307112] | 122.477%
30 | C[C@H](Nc1nccnc1-c1ccsc1)c1ccccc1 [CBK088716] | 135.243%
31 | O=C(O)c1ccc(NS(=O)(=O)c2ccccc2)cc1O [CBK023181] | 121.916%
32 | Cc1cc(C)nc(NCc2cnn(C)c2C)n1 [CBK306276] | 100.634%
33 | Cc1ccc(N(CC(=O)Nc2ccccc2F)S(=O)(=O)c2ccc(F)cc2)cc1 [CBK263333] | 115.752%
34 | CC(=O)N1CCN(C(=O)C2C(C(=O)O)C2(C)C)CC1 (stereo not shown) [CBK287021] | 117.607%
35 | COc1cccc(C(=O)N2CCCC(c3cc4cnccc4[nH]3)C2)c1 (stereo not shown) [CBK285417] | 97.6855%
36 | Cc1noc(C)c1C(=O)N1CCC2(CC1)CC(=O)c1ccc(OCc3ccccc3)c(C)c1O2 [CBK156506] | 79.6778%
37 | Cc1ccccc1C(NC(=O)C1CCN(C/C=C/c2ccccc2)CC1)c1ncccc1C (stereo not shown) [CBK147980] | 151.282%
38 | CC(C)=NOc1ncccc1C#N [CBK007841] | 91.5015%
39 | C=CCn1cc(CN2CCCC(O)(c3ccc(F)cc3)CC2)c(C)n1 (stereo not shown) [CBK285144] | 130.299%
40 | O=C(Cn1ncc2ccccc2c1=O)NNC(=S)Nc1ccc2c(c1)OCO2 [CBK268751] | 129.745%
41 | Cc1nccn1CC(C)CNc1ccc(C(=O)c2ccccc2)cc1[N+](=O)[O-] (stereo not shown) [CBK298336] | 150.274%
42 | Cc1ccc2[nH]c(=O)c(CN(Cc3ccccc3)C(=O)NC3CCCCC3)cc2c1 [CBK068704] | 111.684%
43 | NNC(=O)CCc1ccccc1O [CBK261214] | 100%
44 | CN1CCC2(CC1)CC(NC(=O)C1CCCCC1)c1ccccc1O2 (stereo not shown) [CBK282635] | 112.993%
45 | O=C(O)CN(c1ccc2c(c1)OCCO2)S(=O)(=O)c1ccccc1 [CBK268017] | 103.331%
46 | Cc1nn(CC(=O)N2CCCC2)c(=O)c2cc3sccc3n12 [CBK284024] | 124.959%
47 | Cc1cc([N+](=O)[O-])cc2c1NC(=O)C2(O)N1CCOCC1 (stereo not shown) [CBK262475] | 91.9061%
48 | Cc1nnc(CCNC2CCN(c3ncnc4c(C)csc34)CC2)s1 [CBK307574] | 141.662%
49 | OCCNc1cncc(-c2ccc3c(c2)OCO3)n1 [CBK065979] | 81.1347%
50 | Nn1cnnc1SC1CCCCC1NS(=O)(=O)c1ccccc1 (stereo not shown) [CBK266361] | 193.617%
51 | Cc1cc(-c2cc(C(=O)NN3CCN(C)CC3)c3cc(Cl)ccc3n2)c(C)s1 [CBK267738] | 102.18%
52 | O=c1[nH]c(=O)c2cc(S(=O)(=O)Nc3cccc(CCc4ccccn4)c3)ccc2[nH]1 [CBK286389] | 121.623%

Five compounds from above, arranged by SMILES length, falling:
Row | Compound | % of control remaining
52 | O=c1[nH]c(=O)c2cc(S(=O)(=O)Nc3cccc(CCc4ccccn4)c3)ccc2[nH]1 [CBK286389] | 121.623%
51 | Cc1cc(-c2cc(C(=O)NN3CCN(C)CC3)c3cc(Cl)ccc3n2)c(C)s1 [CBK267738] | 102.18%
40 | O=C(Cn1ncc2ccccc2c1=O)NNC(=S)Nc1ccc2c(c1)OCO2 [CBK268751] | 129.745%
27 | Cc1cccc(OCCN2C(=O)CC(Cc3cnn(C)c3)C2=O)c1 (stereo not shown) [CBK304081] | 113.708%
28 | Cc1nnc(SCC(=O)Nc2nnc(C(C)C)s2)[nH]c1=O [CBK022107] | 139.884%

The list goes on.

Row | Compound | % of control remaining
53 | O=C1Nc2ccc(-c3ccc(Cl)cc3)cc2C(=O)N2CCN(C(=O)c3cccnc3)C[C@H]12 [CBK289590] | 127.396%
54 | CC(=O)c1ccc(-c2ccc(/C=C\c3[nH]c(=O)[nH]c(=O)c3[N+](=O)[O-])o2)cc1 [CBK267038] | 160.836%
55 | O=C(C1CC1)N1CC2CCCC(C1)C2(O)c1cccnc1F (stereo not shown) [CBK282889] | 113.469%
56 | CC1=C(C)CC(C(=O)Nc2sc3c(c2C(=O)OC(C)C)CCCC3)C(C(=O)O)C1 (stereo not shown) [CBK265428] | 130.98%
57 | CN(CC(=O)NCc1ccc2c(c1)OCO2)Cc1ccc(Br)s1 [CBK295185] | 153.12%
58 | O=C(Nc1nccs1)c1cc(C2CCN(C(=O)CC3CCCCC3)C2)nc2ccccc12 (stereo not shown) [CBK285586] | 20.7646%
59 | CC(=O)Oc1ccc(-c2cccc(C(=O)NCC(=O)O)c2)cc1 [CBK263828] | 100%
60 | O=C1c2ccc(-c3nc4ccc(Cl)cc4c(=O)o3)cc2C(=O)N1Cc1cccnc1 [CBK268460] | 107.634%
61 | COc1ccc(C(=O)NC2CCCNC2=O)s1 (stereo not shown) [CBK282938] | 142.343%
62 | O=C(NCC1(O)CCSC1)c1c[nH]nc1-c1cc2ccccc2o1 (stereo not shown) [CBK306159] | 102.918%
63 | CCOC(=O)N1CCC(NC(=O)c2ccc(Nc3cncc(-c4ccc(O)cc4)n3)cc2)CC1 [CBK115694] | 117.058%
64 | NC(=O)OC(c1ccccc1[N+](=O)[O-])P(=O)(c1ccccc1)c1ccccc1 (stereo not shown) [CBK261383] | 106.894%
65 | Nc1nnc(SCC(=O)c2ccc3ccccc3c2)s1 [CBK266120] | 174.455%
66 | COCC(C)NC(=O)C1CCCN(S(=O)(=O)c2ccc(OC)c(C)c2)C1 (stereo not shown) [CBK270242] | 142.412%
67 | Cn1nccc1C(=O)C1CCN(C(=O)c2cccc(F)c2)CC1 [CBK284426] | 117.481%
68 | O=C(CCc1nc(=O)c2c3c(sc2[nH]1)CCC3)N1CCCCCC1 [CBK306388] | 106.828%
69 | N#Cc1c(Oc2cccc3cccnc23)cccc1C(F)(F)F [CBK002728] | 107.895%
70 | CC(C)(CO)Cn1c(=O)[nH]c2ncc(-c3ccc(F)c(Cl)c3)nc21 [CBK064737] | 119.851%
71 | CS(=O)(=O)N1CCN(CC(O)Cn2c3ccc(Cl)cc3c3cc(Cl)ccc32)CC1 (stereo not shown) [CBK264381] | 114.427%
72 | O=C(CSC1c2ccccc2Oc2ccccc21)Nc1cccc(C(=O)O)c1 [CBK266566] | 143.639%
73 | COc1cc(-c2nccnc2NCCc2c[nH]c3ccccc23)cc(OC)c1OC [CBK038015] | 217.485%
74 | COc1ccc(CCNC(=O)[C@@H]2Cc3c([nH]c4ccccc34)[C@]3(CCN(Cc4ccccc4)C3)N2)cc1OC [CBK062620] | 66.4287%
75 | COc1ccc(C(C)C)cc1-c1cncc(N2CCC(C(=O)O)CC2)n1 [CBK037900] | 102.347%
76 | Cn1ncc2c(=O)n(Cc3noc(-c4ccco4)n3)cnc21 [CBK305053] | 115.003%
